# Paper PMC7819943, “Rice protein-binding microarrays: a tool to detect cis-acting elements near promoter regions in rice”
# By UniProt entry, the sequences of proteins in these tests, tags left out.
# UniProt Q0JBA9, entry or part of it: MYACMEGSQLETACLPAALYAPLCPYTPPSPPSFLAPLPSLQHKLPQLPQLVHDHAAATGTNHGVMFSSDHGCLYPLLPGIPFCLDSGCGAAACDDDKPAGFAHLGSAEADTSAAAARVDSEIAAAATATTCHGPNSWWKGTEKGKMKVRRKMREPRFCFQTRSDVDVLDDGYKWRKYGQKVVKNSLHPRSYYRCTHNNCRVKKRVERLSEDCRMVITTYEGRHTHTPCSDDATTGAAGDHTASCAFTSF
# Some of the results follow.
# Target: OsWRKY34 (Oryza sativa, UniProt Q0JBA9 1-250)
# Test: protein-binding microarray (RPBM); PBS, 2% BSA, 51.3 ng/ul salmon testes DNA, 50 uM zinc acetate, 200 nM TF, 25 C, 1 h; high values mean tight binding
# Settings: protein: recombinant; tags: N-terminal polyhistidine and DsRed monomer fusion (pET32a); label: CyDye5-dUTP incorporated in the synthesized complementary strand; 3' TTTTT single-stranded linker to array surface; dsDNA, one strand shown
# Procedure, shortened: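 For the binding signal, per-feature fluorescence intensity was read in arbitrary units on an Axon 4000B scanner. Before scanning, a 2% BSA-blocked custom Agilent array made double-stranded with Cy5-dUTP was washed after 1 h at 25 °C with 200 nM protein and 50 µM zinc acetate. The proteins were Ni–NTA-purified transcription factors with N-terminal polyhistidine and DsRed fusions, expressed in E. coli BL21-CodonPlus.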
row,Sequence,binding signal
1,TTAGTCGTCTGTTCATATTCTCTCTCCTTACTATTTCACTCGGAGTCACCTAGTGCAG,9620 fluorescence intensity (a.u.)
2,CTGGTTTTGTAGTTTAGGGTCATGGTTTAGATTTCGATCACGGAGTCACCTAGTGCAG,11800 fluorescence intensity (a.u.)
3,TGTGGTATTTTTGTCAAACATTTAACCGTCCATCTTATTTCGGAGTCACCTAGTGCAG,8440 fluorescence intensity (a.u.)
4,GGTTTTACTTGCGATACCCTTCGTCTCCCTCACGTCCCATCGGAGTCACCTAGTGCAG,10200 fluorescence intensity (a.u.)
5,ATCCTCGACCTCGACTGCGACCACTACGTCAACAACTCGCCGGAGTCACCTAGTGCAG,10500 fluorescence intensity (a.u.)
6,TCCATCTTTCATCTGTTATTTTGCTCTTGTTTTGATGGTACGGAGTCACCTAGTGCAG,8410 fluorescence intensity (a.u.)
7,AGTCCTGTAAGCAAGTCTCTGTCCAGTCAATTTGTCAAATCGGAGTCACCTAGTGCAG,9440 fluorescence intensity (a.u.)
8,ATTTGCAGAGTTATGTTTGTTTCCTATTTTGCCCTGTTTACGGAGTCACCTAGTGCAG,12800 fluorescence intensity (a.u.)
9,CCCCATCCGCGCCTCCAACTCGCTGTTGCCCTCACCTCGACGGAGTCACCTAGTGCAG,8980 fluorescence intensity (a.u.)
10,CATGCGGGTCTCATTAACTCTATTGTTTTCTCCGATAGAACGGAGTCACCTAGTGCAG,10000 fluorescence intensity (a.u.)
11,CGGAGGGAGCTCAGGGAGGGAGGGAGGAGGGGCGGCGATGCGGAGTCACCTAGTGCAG,13300 fluorescence intensity (a.u.)
12,CGAATTCGCCGTCGCCGTCCCCTAGCATCCGCGCCGCCCACGGAGTCACCTAGTGCAG,9690 fluorescence intensity (a.u.)
13,AGCCGCTGTCCTCGCCCGCATCCGCTGCGTCATGGCCACCCGGAGTCACCTAGTGCAG,9200 fluorescence intensity (a.u.)
14,CAGTTTGTGACATAATTTTCTTTGTTGCTTTTTGGTTGACCGGAGTCACCTAGTGCAG,12600 fluorescence intensity (a.u.)
15,TCGTCGCCATCGCCGCCTCTTCGCTTCTTCATCTCCCCACCGGAGTCACCTAGTGCAG,8130 fluorescence intensity (a.u.)
16,AAGCGCGGCCGTATTTATCCAACCCGATCGATCGATCGATCGGAGTCACCTAGTGCAG,8440 fluorescence intensity (a.u.)
17,TACCCACCCCACCGAACCCTAACCAATCCTAGCCACCGCCCGGAGTCACCTAGTGCAG,10100 fluorescence intensity (a.u.)
18,TGTTTGACGCCGTTGACTTTTTTAAACATGTTTGACCATTCGGAGTCACCTAGTGCAG,34200 fluorescence intensity (a.u.)
19,CCTATTGGAAAATTTTCTTTTTTTTGTCTATCTCTCTTATCGGAGTCACCTAGTGCAG,11100 fluorescence intensity (a.u.)
20,TAGTTTTGTTCTTTGTCTATATTTAATACTCTATATCTATCGGAGTCACCTAGTGCAG,8590 fluorescence intensity (a.u.)
21,TGTTCACCGTCCATTCCATTATGTCGTGCGGTTTATGCATCGGAGTCACCTAGTGCAG,11800 fluorescence intensity (a.u.)
22,TGCAGAGATCATGGACACACACATGGACCTATGGCATTTTCGGAGTCACCTAGTGCAG,8190 fluorescence intensity (a.u.)
23,GAATTGAATTGAAGGTTCTTGGGTGCTTTCTTTTCCAGTTCGGAGTCACCTAGTGCAG,8070 fluorescence intensity (a.u.)
24,CCGGCCTCTTGCCTCCGCTCCGCGCTCTCATCACACATCTCGGAGTCACCTAGTGCAG,10100 fluorescence intensity (a.u.)
25,GAGTGCAACATATGATGATTTCTTTTTCTTCTGCCCATAACGGAGTCACCTAGTGCAG,8250 fluorescence intensity (a.u.)
26,CGTCGGATTCCTGCCCGGAACTAGCTCGATCTCACTCGTTCGGAGTCACCTAGTGCAG,8090 fluorescence intensity (a.u.)
27,GTGTTCGTTAATGGTATTTCTTGGATTGGAGGGCTCGTGACGGAGTCACCTAGTGCAG,8150 fluorescence intensity (a.u.)

# 4 entries drawn at random from those above:
row,Sequence,binding signal
3,TGTGGTATTTTTGTCAAACATTTAACCGTCCATCTTATTTCGGAGTCACCTAGTGCAG,8440 fluorescence intensity (a.u.)
5,ATCCTCGACCTCGACTGCGACCACTACGTCAACAACTCGCCGGAGTCACCTAGTGCAG,10500 fluorescence intensity (a.u.)
16,AAGCGCGGCCGTATTTATCCAACCCGATCGATCGATCGATCGGAGTCACCTAGTGCAG,8440 fluorescence intensity (a.u.)
15,TCGTCGCCATCGCCGCCTCTTCGCTTCTTCATCTCCCCACCGGAGTCACCTAGTGCAG,8130 fluorescence intensity (a.u.)

# (listing goes on)

row,Sequence,binding signal
1,AACCCATGCCTTCTCATCTCACTTGCACGCACCTACCCTTCGGAGTCACCTAGTGCAG,8490 fluorescence intensity (a.u.)
2,ACATTTCACTTCATCGTCTCGATCGATCGAGCTTCGAGCACGGAGTCACCTAGTGCAG,8050 fluorescence intensity (a.u.)
3,ATCGTCGCTCGCCGGTGAGCATCCCTCCCTACCCACACCTCGGAGTCACCTAGTGCAG,9070 fluorescence intensity (a.u.)
4,CTTGCTTTTAGTATTTGTTCATTCATGTTACTTCGAATTGCGGAGTCACCTAGTGCAG,9560 fluorescence intensity (a.u.)
5,CCATCCAACCCTGTTTTTACTTTGGAATGCATAATCTTTTCGGAGTCACCTAGTGCAG,9400 fluorescence intensity (a.u.)
6,ACTTTTTTTGGTGACTATGTGTTTCCCTGTGGTGGGCTTCCGGAGTCACCTAGTGCAG,12000 fluorescence intensity (a.u.)
7,CACACACACTCTACATGGAACGTTCACATATGGATTCTCACGGAGTCACCTAGTGCAG,8910 fluorescence intensity (a.u.)
8,TCCCGCTGGCCGCTGCTCCAACCCGTGCTCTCCGTGGCCGCGGAGTCACCTAGTGCAG,9600 fluorescence intensity (a.u.)
9,TAGCATTTTTCCCACCAGTCTTCTCACGAACGCACGAAAGCGGAGTCACCTAGTGCAG,8370 fluorescence intensity (a.u.)
10,TGCCAATGCCATTGGCGAATTCGCGTTACGTCTACGAAAACGGAGTCACCTAGTGCAG,8430 fluorescence intensity (a.u.)
11,GAACTTTTTGTACCTGTTGGTGTTGGATCTTTTTTTTTTACGGAGTCACCTAGTGCAG,9540 fluorescence intensity (a.u.)
12,CATTAGGACCTCGATCACTTAACTGTATGCAATATATCCTCGGAGTCACCTAGTGCAG,8490 fluorescence intensity (a.u.)
13,AGTTCATTCTCGATCTGCCAACTTCATTCTCCCGTCTATACGGAGTCACCTAGTGCAG,9270 fluorescence intensity (a.u.)
14,TGGGTTTTACGGTTTTACCCTCTCGGGCTTGAGGGGAGAGCGGAGTCACCTAGTGCAG,47600 fluorescence intensity (a.u.)
15,TCATCTGTGTCAATCTCTCTTCTAACTCCTACGTTTTTTTCGGAGTCACCTAGTGCAG,8650 fluorescence intensity (a.u.)
16,TGTTGTCTACTCTTTCTTCGACTACAGAGTTATGGTGGATCGGAGTCACCTAGTGCAG,8170 fluorescence intensity (a.u.)
17,TGAATTTTGGTAGGATGGGGATGGGGAACTGAGGAAGGAACGGAGTCACCTAGTGCAG,8320 fluorescence intensity (a.u.)
18,TCTCCCGTCTCCGTATCCTCCGCTCCTTCGCCATCTCGCGCGGAGTCACCTAGTGCAG,15700 fluorescence intensity (a.u.)
19,GGGTTATTTTGCAAATTTTCACCGCGAGTAGAGTAACTTTCGGAGTCACCTAGTGCAG,9870 fluorescence intensity (a.u.)
20,TAAATCATAAGCTCGATATTAGTTTTGGAGTCTACATGACCGGAGTCACCTAGTGCAG,10200 fluorescence intensity (a.u.)
21,CGACTCCGGCGATTTCTTCCGCTGCATCAACACCCGTTTCCGGAGTCACCTAGTGCAG,10700 fluorescence intensity (a.u.)
22,AATTATTAATTTTTTTCCTATTATTTGATTTATTGTTAAACGGAGTCACCTAGTGCAG,9560 fluorescence intensity (a.u.)
23,CCAATTAAACCCTACTCTCTCTCTCTCTCTCTCTCTCTCTCGGAGTCACCTAGTGCAG,11100 fluorescence intensity (a.u.)
24,TTAACTGTCCTGGTCAAAATCCGTCCTCACACGCGCGAATCGGAGTCACCTAGTGCAG,10000 fluorescence intensity (a.u.)
25,CCTGCGGATTCCCACCCTGATTTTCGCCGTTTGTTTGTTTCGGAGTCACCTAGTGCAG,9090 fluorescence intensity (a.u.)
26,GATGGATCGGTTAGTCTTGTTAATTTCGTCATCAGCTTATCGGAGTCACCTAGTGCAG,11700 fluorescence intensity (a.u.)
27,GCCCACTTGTCAATCTCTCTTTCTCTGTTCTTCTTCGACACGGAGTCACCTAGTGCAG,8870 fluorescence intensity (a.u.)
